# Source: PubChem BioAssay AID1487 (National Center for Advancing Translational Sciences (NCATS), 2009)
# Where “and” joins values, the source holds several entries; their conditions need not be identical. Identical values can stand only once. About 25 (0.01%) of roughly 200,000 compounds were called active. Inconclusive results, whose numbers are uncertain, are shown with a selection of clear calls. Calls follow the shape of the dose curve; as a rule, active = well fitted inhibition curve with a large enough effect in the signal ratio, with a control signal flat (not every such curve was filed as active); inconclusive = small, poorly fitted or top-dose-only effect, or effect the other way, or a change in a side signal; inactive = flat fitted curve, though single readings scatter; the % refers to the signal ratio. Where the call is inconclusive, the potency comes from a doubtful curve fit.
# Test: qHTS Assay for Modulators of Lamin A Splicing
# Conditions: HeLa LMNA splicing GFP/RFP minigene ratio, 48 h; ratio change, negative = inhibition: at 46.1 µM (top of the series) unless noted
# Method in brief: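 Read-out is the ratio of GFP to DsRed2 object intensity, acquired by 488 nm laser-scanning cytometry on HeLa lamin A-EGFP minigene reporter cells. Compound incubation 48 hrs at 37 °C in Opti-MEM with 2% FBS; DMSO 0.5% final.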
# % is scaled to controls: 0 for no effect and ±100 for the full control effect; potency is read from the fitted curve at half-maximal effect.
Compound,"ratio change, negative = inhibition",Potency
CON(C)C(=O)Nc1ccc(Cl)cc1,inactive: 3.2%,
COc1cc(-c2ccc(=O)[nH]n2)ccc1OC(F)F,,"inconclusive: 1 µM [rising, full curve]"
CCCCCCCCCC[N+](C)(C)CCCCCCCCCC,inconclusive: -24.6%,
Cc1ccc(-n2nc(C)c3c2NC(=O)CSC3c2ccc3c(c2)OCO3)cc1 (stereo not given),inactive: 6.59%,
O=C(c1cc2c(s1)CCCC2)N1CCC2(CC1)OCCO2,inconclusive: 9.67%,
CCCCCCCCC(=O)NCc1ccc(O)c(OC)c1,inconclusive: 3.73%,
Cc1nnc(NC(=O)c2cccn(Cc3ccc(Cl)cc3)c2=O)s1,inconclusive: 13.2% [at 46 µM],
COC(=O)CC1=C(C(=O)OC)C2(C(=O)Nc3c(C)cccc32)C(C#N)=C(N)O1 (stereo not given),inactive: 8.48%,
COc1cccc(NC(=O)N2CCC3(CC2)OCCO3)c1,inactive: -4.97%,
CCC1(c2ccccc2)C(=O)N(C)C(=O)N(C)C1=O,inactive: 1.27%,
O=C(c1ccc(N2CCCCC2)c([N+](=O)[O-])c1)N1CCC2(CC1)OCCO2,inconclusive: 9% [at 46 µM],
O=C(CN1CCCCC1)c1ccccc1F,inconclusive: -20.5% [at 46 µM],
COc1ccc2ccc(O)c(CN3CC=C(c4ccccc4)CC3)c2c1,inconclusive: -23.3% [at 46 µM],
C[C@H](NC(C)(C)C)C(=O)c1cccc(Cl)c1,inconclusive: -17.9%,
CNC[C@H](O)c1ccc(OC(=O)C(C)(C)C)c(OC(=O)C(C)(C)C)c1,,"inconclusive: 0.0282 µM [inhibitor, full curve, poor fit]"
CCOc1c(Cl)cc(CNc2ccc(S(N)(=O)=O)cc2)cc1OC,,"inconclusive: 10 µM [falling, partial curve]"
COCCN1C(=O)NC(=O)/C(=C\c2ccc(Br)cc2)C1=O,inactive: 10.1% [at 46 µM],
O=C(c1cccc([N+](=O)[O-])c1)C12CN3CN(CN(C3)C1)C2,inconclusive: 24.1% [at 46 µM],
C=CCN1C(=O)NC(=O)/C(=C/c2cc3c4c(c2)CCCN4CCC3)C1=O,inactive: 12.1%,
Cc1ccc(C)c(OCC(=O)N2CCCN(C)CC2)c1,inactive: -22.2%,
O=C(N/N=C1/CN2CCC1CC2)c1cc2ccccc2cc1O,inactive: 5.88%,
O=c1[nH]c(=O)n(Cc2ccccc2)c(O)c1C=Nc1ccc(CN2CCOCC2)cc1,inactive: 11.6%,

Compound,"ratio change, negative = inhibition",Potency
COc1cccc(N2C(=O)NC(=O)C3(Cc4cc(C)ccc4N(C)C3)C2=O)c1 (stereo not given),inactive: -3.99%,
O=C1NC(=O)C(=Cc2ccc(OCC(=O)N3CCOCC3)cc2)C(=O)N1,inconclusive: -0.366%,
COc1cc2c(c(OC)c1OC)-c1ccc(O)c(=O)cc1[C@H](N)CC2,inconclusive: -22.2%,
Cc1cccc(OCC(=O)N2CCN(Cc3ccc4c(c3)OCO4)CC2)c1,inconclusive: 1.86% [at 46 µM],
CCOc1ccc(CC2C(=O)NC(=O)N(c3ccc(CC)cc3)C2=O)cc1 (stereo not given),,"inconclusive: 5.62 µM [fluorescent, single point]"
CCCCN1C(=O)/C(=C/c2ccc(N3CCCCCC3)cc2)C(=O)NC1=S,inactive: -9.79%,
CC(C)(C)C(=O)Cn1c(NCCCl)nc2ccccc21,inconclusive: -31.7% [at 46 µM],
CCN(CCCl)Cc1ccccc1Br,inconclusive: -41.2%,
O=c1c2ccccc2nc(/C=C\c2ccccc2F)n1-c1ccc(O)cc1,,"inconclusive: 12.6 µM [inhibitor, single point]"
CCCCn1c(C)c(C(=O)OCC)c2c(CN3CCOCC3)c(O)ccc21,inactive: -2.72%,
COc1ccc(CC2C(=O)N(c3ccccc3)C(=O)N(c3ccccc3)C2=O)c(OC)c1,inactive: 1.21%,
Cn1c(=O)n(C)c2cc([N+](=O)[O-])c(N3CCNCC3)cc21,inconclusive: -27.2% [at 46 µM],
Cc1ccc(Cc2c(C)nc3nc(SCC(=O)N4CCC5(CC4)OCCO5)nn3c2C)cc1,,"inconclusive: 35.5 µM [falling, single point]"
Cc1ccc(Cn2cc(C=O)c(-c3ccc(C)cc3)n2)cc1,inconclusive: -34.1%,
CN(C)C(=O)Oc1cccc([N+](C)(C)C)c1,inconclusive: -14.2% and inconclusive: -7.15%,
O=c1[nH]cnc2[nH]ncc12,inconclusive: 0.863%,
COc1cc2c(cc1OC)[C@@H]1C(=O)c3ccc(OC)c(CC=C(C)C)c3OC1CO2 (stereo not given in full),,"inconclusive: 20 µM [cytotoxic, partial curve]"
CC12CC(c3ccccc3O1)C(C(=O)OCc1ccccc1)C(=O)N2 (stereo not given),inactive: -1.81%,
Fc1ccc2c(c1)nnn2C1CCN(Cc2nnnn2CCc2ccccc2)CC1,inconclusive: 3.56%,
CCC(CC)NCc1c[nH]c2ccccc12,inconclusive: -36.7% [at 46 µM],
CNC(=O)OCC[N+](C)(C)C,,"inconclusive: 5.62 µM [activator, partial curve, poor fit]"
NCC(=O)c1ccccc1,inactive: -4.94%,

Compound,"ratio change, negative = inhibition",Potency
CC1(C)C(=O)[C@@H]2OC2[C@@]2(C)C1CC(O)[C@]1(C)C2CC[C@@]2(C)C(c3ccoc3)OC(=O)C3OC312 (stereo not given in full),inconclusive: 13.3%,
CSc1ccc(C(=O)C2CCCN(Cc3cc4ccccc4[nH]3)C2)cc1 (stereo not given),,"inconclusive: 35.5 µM [cytotoxic, single point]"
CCN1C(=O)c2ccccc2Sc2ccc(NC(=O)Cc3ccc(OC)c(OC)c3)cc21,,"inconclusive: 1 µM [inhibitor, full curve]"
O=C1NC(=O)N(Cc2ccco2)C(=O)/C1=C\c1cccn1CCOc1ccc(Cl)cc1,inconclusive: -33.6%,
O=C1/C(=C/c2cc3c(cc2Cl)OCO3)N2CCC1CC2,inactive: -12.8%,
C[C@H]1CN(C2CCC(C#N)(c3ccc(F)cc3)CC2)CC[C@@]1(C(=O)O)c1ccccc1 (stereo not given in full),inconclusive: -8.9%,
CC1=C(/C=C/c2ccccc2)CCN(C)C1,inactive: 2.48%,
Cc1ccc(CC2C(=O)N(C)C(=O)N(C)C2=O)s1,inactive: 15.3%,
CC(C)N1CCN(Cc2ccc3c(c2)OCCO3)CC1CCO (stereo not given),inactive: 3.01% [at 46 µM],
O=C1CN=C(c2ccc(F)cc2)c2oc3ccccc3c2N1,inconclusive: 10.8% [at 46 µM],
Cc1ccc(Cn2cccc(C(=O)Nc3cc([N+](=O)[O-])ccc3C)c2=O)cc1,inconclusive: 4.92% [at 46 µM],
COc1ccc(OCC(=O)N2CCN(Cc3cc(=O)n4nc(-c5ccccc5C)sc4n3)CC2)cc1,inconclusive: -14% [at 46 µM],
O=c1c2ccccc2nc(/C=C\c2ccc(F)cc2)n1-c1ccccc1F,inconclusive: -32.3% [at 46 µM],
C[N+]1([O-])[C@@H]2CC[C@H]1CC(OC(=O)[C@@H](CO)c1ccccc1)C2 (stereo not given in full),inconclusive: -2.13%,
CCS(=O)CCSP(=O)(OC)OC (stereo not given),inactive: 0.636%,
C=CCn1c(O)c(C(C)=Nc2ccc(N(CC)CC)cc2)c(=O)[nH]c1=O,inconclusive: -33%,
CCCN1CCc2cccc3c2C1Cc1ccc(O)c(O)c1-3 (stereo not given),,"inconclusive: 12.6 µM [cytotoxic, partial curve, poor fit]"
COc1ccc(/C=C/c2nc3ccccc3c(=O)n2-c2ccc(C)cc2)cc1O,,"inconclusive: 35.5 µM [inhibitor, single point]"
CC[N+](CC)(CC)CCOc1cccc(OCC[N+](CC)(CC)CC)c1OCC[N+](CC)(CC)CC,inconclusive: 22.4%,
CCn1c(O)c(C(c2ccccn2)c2c(O)n(CC)c(=S)[nH]c2=O)c(=O)[nH]c1=S,inactive: 0.51%,
O=c1c(O)c(-c2ccc(O)c(O)c2)oc2cc(O)cc(O)c12,inconclusive: 5.91% and inconclusive: 8.64%,
O=C1CN=C(c2ccccc2)c2oc3ccc(Br)cc3c2N1,inactive: 14.8%,

Compound,"ratio change, negative = inhibition",Potency
CCCCCn1c(N)c(C(=O)NCCN2CCOCC2)c2nc3ccccc3nc21,inactive: 12.9%,
Cc1cc(S(=O)(=O)NC(C)C)ccc1OCC(=O)N1CCN(Cc2ccc3c(c2)OCO3)CC1,,"inconclusive: 14.1 µM [fluorescent, single point]"
CCN1C(=O)NC(=O)/C(=C\c2ccc(N3CCOCC3)cc2OC)C1=O,inactive: 11.2%,
CCOC(=O)c1cc(C)sc1/N=C/C1C(=O)NC(=S)NC1=O,inactive: -16.2% [at 46 µM],
NCC(O)c1ccc(O)cc1 (stereo not given),inconclusive: -17.7%,
C[N+]1(C)C2CCC1CC(OC(=O)C(CO)c1ccccc1)C2 (stereo not given),inconclusive: -20.4%,
O=C(O)c1nn(Cc2ccc(Cl)c(Cl)c2)c2ccccc12,inconclusive: 1.41%,
CC1CCC(C(C)C)C(OC(=O)c2ccccc2N)C1 (stereo not given),inconclusive: -11.3%,
O=c1c2ccccc2[se]n1-c1ccccc1,inactive,
COc1ccc(Cl)cc1NC(=O)c1sc2nc3c(cc2c1N)N1CCC3CC1,inconclusive: 1.77% [at 46 µM],
C=CCN1CC[C@]23CCCCC2[C@H]1Cc1ccc(O)cc13 (stereo not given in full),inconclusive: -18.8%,
CCOC(=O)N(CC)c1ccc(C(O)(C(=O)OCC)C(F)(F)F)cc1 (stereo not given),inactive: 7.62%,
CCNc1nc(Cl)nc(NC(C)C)n1,inconclusive: 5.53%,
CCn1c(O)c(C=Nc2ccc(N3CCOCC3)c(Br)c2)c(=O)n(CC)c1=S,,"inconclusive: 35.5 µM [cytotoxic, single point]"
c1ccc2c(c1)CSc1ccccc1C2C1=NCCN1 (stereo not given),inconclusive: -39.7%,
Cc1cccc(NC(=O)CSc2nnc([C@@H](N)Cc3c[nH]c4ccccc34)o2)c1C,inactive: 6.83%,
CN1CCc2nc3sc(C#N)c(N)c3c(-c3cccs3)c2C1,inactive: 0.126%,
C[N+]1(C)[C@@H]2CC(OC(=O)[C@H](CO)c3ccccc3)C[C@H]1[C@@H]1O[C@@H]12 (stereo not given in full),inconclusive: 15.2% [at 46 µM],
CN1C(=O)NC(=O)/C(=C\c2ccc([N+](=O)[O-])o2)C1=O,inactive: -5.26% [at 46 µM],
